Reference: PubChem BioAssay AID1347076 (National Center for Advancing Translational Sciences (NCATS), 2019)
Values joined by “and” are separate entries in the source; they are usually repeats but may differ in a detail not shown here. Identical values can stand only once. The whole screen tested about 400,000 compounds, of which about 13,000 (3.2%) were called active. This list was built around the results that the source calls inconclusive (neither active nor inactive); the mix of calls is not that of the screen. Calls come from the whole dose curve; as a rule, active = well fitted cell-killing curve with a large enough effect; inconclusive = small, poorly fitted or top-dose-only effect, or effect the other way; inactive = flat fitted curve, though single readings scatter. A potency beside an inconclusive call is a rough fit, not a confirmed value.

experiment: qHTS assay for MDR1-selective chemotherapeutics: Primary screen using the drug-selected MDR subline cells KB-V1; details: KB-V1 MDR cells viability, CellTiter-Glo, 72 h; activity change, negative = cytotoxicity: at 46.1 µM (top of the series); note: nearly all actives have a fitted effect of over 60% in size
Outline: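 In this primary screen, KB-V1 cells overexpressing P-gp are incubated with library compounds (lowest to highest concentration) for 72 h at 37 degrees C before a luminescent ATP viability read.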
% is set by controls: 0 for no effect and ±100 for the full control effect; potency is the fitted concentration of half-maximal effect.

SMILES | Potency | activity change, negative = cytotoxicity
Cc1nn(Cc2ccc(Cl)c(Cl)c2)c(C)c1NC(=O)c1cc(C2CC2)on1 | inconclusive: 23.1 µM [cytotoxic, single point] | 
Cc1cc(C)c2nc(SCC(=O)NNC(=O)c3ccco3)c(C)cc2c1 | inconclusive: 23.1 µM [rising, single point] | 
O=C(Nc1ccccc1O)c1ccccc1O | inconclusive: 20.6 µM [cytotoxic, single point] | 
O=C(c1cc2cc(F)ccc2[nH]1)N1CCC(Cc2ccccc2)CC1 |  | inactive: 11.6%
O=C(N[C@H](Cc1cc(=O)[nH]c2ccccc12)C(=O)O)c1ccc(Cl)cc1 |  | inactive: -3.27%
N#CCCN(C(=O)COc1ccc(Br)cc1F)c1ccc(F)cc1 | inconclusive: 23.1 µM [cytotoxic, single point] | 
COc1ccccc1C(CNC(=O)c1cccc(S(=O)(=O)N2CCCc3ccccc32)c1)N(C)C (stereo not drawn) | active: 5.8 µM | 
Cc1cccc(NC(=O)C2CCN(S(=O)(=O)c3ccc(Cl)cc3)CC2)n1 | inconclusive: 9.2 µM [cytotoxic, partial curve] | 
O=Cc1ccc(Oc2nc(Cl)ncc2F)cc1 |  | inconclusive: 30.4%
Cc1nn(-c2ccc(C(=O)NCC(c3ccco3)N3CCCC3)cc2)c(C)c1Cl (stereo not drawn) |  | inactive: 16.7%
Cc1nn(Cc2ccc(Cl)cc2Cl)c(C)c1NC(=O)c1nn(C)cc1Cl | inconclusive: 14.6 µM [cytotoxic, single point] | 
COc1ccc2cc(CN(CCO)C(=O)c3ccc(Br)cc3)c(=O)[nH]c2c1 | inconclusive: 23.1 µM [cytotoxic, partial curve, poor fit] | 
COc1ccc(Br)c(OC)c1C(=O)NC(=O)Nc1nc(C)cc(C)n1 | inconclusive: 20.6 µM [rising, single point] | 
NC(=O)c1cccc(Nc2nc(C(N)CCc3ccccc3)cs2)n1 (stereo not drawn) |  | inactive: 6.22%
COc1ccc(CC(=O)N2N=C(C)CC2(O)c2cccnc2)cc1OC (stereo not drawn) |  | inconclusive: -79.3%
COc1ccc(C(C)=O)cc1Cn1c(C)c(C(=O)NCC(C)C)sc1=O | inconclusive: 20.6 µM [cytotoxic, partial curve] | 
S=C(NCc1ccco1)Nc1ccc(Cl)c(Cl)c1 | inconclusive: 23.1 µM [cytotoxic, single point] | 
Cc1cc(/C=C2\SC(N)=NC2=O)c(C)n1-c1ccccc1 |  | inactive: -1.31%
Cc1ccc2nc(Cl)nc(-c3ccccc3)c2c1 | inconclusive: 20.6 µM [cytotoxic, single point] | 
COc1cccc(NC(=O)c2cc(CN3C(=O)c4ccccc4C3=O)ccc2OC)c1 | inconclusive: 0.206 µM [cytotoxic, full curve, poor fit] | 
Cc1ccc2c(CC(=O)OCc3cc(=O)n4c(n3)sc3ccccc34)coc2c1 | inconclusive: 0.206 µM [rising, full curve, poor fit] | 
Cc1cc(F)ccc1NC(=O)c1csc2c1CCC(C)C2 (stereo not drawn) |  | inactive: 12.6%
COc1ccc(N(CC(=O)NCCSCc2cccc(Cl)c2)S(C)(=O)=O)cc1Cl | inconclusive: 16.4 µM [cytotoxic, single point] | 

SMILES | Potency | activity change, negative = cytotoxicity
CCc1cc2c(NC(Cc3ccccc3)C(=O)O)ncnc2s1 (stereo not drawn) | inconclusive: 29.1 µM [rising, single point] | 
COc1ccccc1C(c1nnnn1Cc1ccccc1)N1CCC(C(N)=O)CC1 (stereo not drawn) | inconclusive: 23.1 µM [cytotoxic, single point] | 
COC(=O)c1cc(NS(=O)(=O)c2ccc3c(c2)OCCO3)ccc1Cl | inconclusive: 32.6 µM [cytotoxic, single point] | 
CC(=O)c1ccc(-c2cnc3c(NC=O)cc(-c4ccc(S(C)(=O)=O)cc4)cn23)cc1 |  | inactive: -0.477%
Nc1nc(N)nc(-c2ccc(Cl)cc2)n1 | inconclusive: 0.0184 µM [rising, full curve] | 
NC(=O)c1ccccc1NC(=O)CSC1=NCCS1 | inconclusive: 11.6 µM [rising, partial curve, poor fit] | 
Cc1nnsc1C(=O)Nc1ccc(Cl)cc1 | inconclusive: 11.6 µM [cytotoxic, partial curve] | 
O=C(c1ccc(S(=O)(=O)Nc2ccc(F)cc2)cc1)N1CCN(c2ccccn2)CC1 | inconclusive: 14.6 µM [cytotoxic, partial curve, poor fit] | 
O=C(CSc1nc2ccccc2s1)N1c2ccccc2Sc2ccc(Cl)cc21 | inconclusive: 20.6 µM [cytotoxic, partial curve, poor fit] | 
CC(OC(=O)CC1Sc2ccccc2NC1=O)C(=O)N(C)Cc1ccccc1 (stereo not drawn) |  | inactive: -9.89%
O=C(Nc1nc(-c2cccs2)cs1)c1ccc(S(=O)(=O)N2CCCC2)cc1 | inconclusive: 29.1 µM [cytotoxic, single point] | 
COc1cc(C(C)=O)ccc1OCC(O)CN(CCO)Cc1ccccc1 (stereo not drawn) | inconclusive: 23.1 µM [rising, single point] | 
CS(=O)c1nc(-c2ccc(Br)cc2)cc(-c2ccccc2)c1C#N (stereo not drawn) | inconclusive: 25.9 µM [cytotoxic, single point] | 
O=C(Nc1ccccc1F)C(=O)Nc1cccc2ccccc12 | inconclusive: 10.3 µM [rising, partial curve, poor fit] | 
Cc1sc2ncnc(NCC3COc4ccccc4O3)c2c1C (stereo not drawn) |  | inactive: -16.8%
OCCC1CN(Cc2cccn2-c2nccs2)CCN1CCc1ccccc1 (stereo not drawn) | inconclusive: 7.31 µM [cytotoxic, partial curve] | 
C=CCNc1nc(Nc2ccc([N+](=O)[O-])cc2)nc(N2CCCC2)n1 | inconclusive: 29.1 µM [cytotoxic, single point] | 
CCOc1ccc(C(=O)COC(=O)c2cc([N+](=O)[O-])ccc2N2CCOCC2)cc1 | inconclusive: 16.4 µM [cytotoxic, partial curve] | 
CN(C)c1nc(C(=O)Nc2ccccc2)nc(N(C)C)n1 |  | inactive: -23.2%
Cc1nc(N)sc1-c1ccccc1 | inconclusive: 23.1 µM [cytotoxic, partial curve, poor fit] | 
CN(CC(=O)Nc1ccc(F)cc1)C(=O)c1ccccc1Sc1ccccc1C#N | inconclusive: 14.6 µM [cytotoxic, partial curve] | 
COc1ccccc1N1CCN(C(=O)CC(NC(=O)c2ccccc2Cl)c2ccccc2)CC1 (stereo not drawn) | inconclusive: 2.31 µM [cytotoxic, full curve] | 
O=C1Nc2ccccc2/C1=N/N=C/c1ccc(-c2ccc([N+](=O)[O-])cc2)o1 |  | inactive: 3.83%

SMILES | Potency | activity change, negative = cytotoxicity
O=C(CN1C(=O)NC2(CCCC2)C1=O)OCc1ccc(Br)cc1 |  | inactive: -21.6%
COc1ccc(-c2noc(-c3ccccc3C(=O)N3CCOCC3)n2)cc1 | active: 9.2 µM | 
O=[N+]([O-])c1ccc(C(O)CN2CCOCC2)cc1 (stereo not drawn) |  | inactive: 3.75%
CCc1ccc(NC(=O)CSc2nc3nc(C)cc(C)n3n2)cc1 | active: 13 µM and inconclusive: 4.61 µM [cytotoxic, partial curve] | 
O=C(NN=Cc1ccccc1O)c1cccc([N+](=O)[O-])c1 | inconclusive: 1.46 µM [cytotoxic, full curve] | 
CCOc1cc(C(c2c(C)[nH]n(-c3ccccc3)c2=O)c2c(C)[nH]n(-c3ccccc3)c2=O)ccc1O | inconclusive: 32.6 µM [cytotoxic, single point] | 
Cc1ccc(-n2[nH]c(C)c(/C=N/n3c(C)nc4ccccc4c3=O)c2=O)cc1 | inconclusive: 23.1 µM [cytotoxic, partial curve] | 
C/C(=N\NC(=O)Cc1csc(N2CCOCC2)n1)c1ccc(Cl)c(Cl)c1 | inconclusive: 16.4 µM [cytotoxic, partial curve] | 
O=C(CN1C(=O)C2(SCC(=O)N2c2ccc(F)c(F)c2)c2ccccc21)NCCc1ccccc1 (stereo not drawn) | inconclusive: 20.6 µM [cytotoxic, partial curve, poor fit] | 
COCCn1c(=O)[nH]c(=O)c2cc(C(=O)c3cc(OC)ccc3O)cnc21 | inconclusive: 29.1 µM [cytotoxic, single point] | 
COc1ccc(CCNC(=O)c2cnn(-c3ccc(F)cc3)c2C2CCN(C(=O)OC(C)(C)C)CC2)cc1OC |  | inactive: 10.6%
CCCCC(=O)OCC(=O)Nc1ccc(SC(F)F)cc1 | inconclusive: 18.4 µM [rising, single point] | 
O=c1c(-c2cccs2)nc2ccccc2n1C(c1ccccn1)c1nc2ccccc2[nH]1 (stereo not drawn) | inconclusive: 20.6 µM [cytotoxic, single point] | 
COc1ccccc1-n1c(C)nc2cc(C(=O)NCC3CCCO3)ccc21 (stereo not drawn) |  | inconclusive: 0%
CCOC(=O)c1c(C)[nH]c2c1-c1ccccc1C(=O)C2=O | inconclusive: 2.91 µM [cytotoxic, partial curve, poor fit] | 
Cc1c(C(=O)N2CCc3ccccc3C2)oc2ccc(S(=O)(=O)N3CC(C)CC(C)C3)cc12 (stereo not drawn) | inconclusive: 13 µM [cytotoxic, partial curve, poor fit] | 
CC(C)OC(=O)CSc1nnc(-c2ccc(Cl)cc2Cl)o1 | inconclusive: 25.9 µM [rising, single point] | 
CCN(CC)S(=O)(=O)c1ccc(NC(=O)Cn2ncc3c([nH]c4ccccc43)c2=O)cc1 | inconclusive: 23.1 µM [rising, single point] | 
COc1ccc(C(=O)c2ccc(OC)c(OC)c2OC)cc1 | active: 2.31 µM | 
Cc1nc2c(C(=O)N3CCCCC3)cnn2c(C)c1Cc1ccccc1F | inconclusive: 11.2 µM [cytotoxic, partial curve, poor fit] | 
Cc1[nH]c2ccc(C(=O)N3CCN(c4ccccc4F)CC3)cc2c1C |  | inactive: 0.106%
C=CCn1c(SCC(=O)N2CC(C)OC(C)C2)nnc1-c1ccncc1 (stereo not drawn) | inconclusive: 29.1 µM [rising, single point] | 
